Test system: Bombus terrestris
Assay: Acute oral insecticide bioassay of bumble bees, with or without PBO
Settings: slope of dose response
Method: Acute contact insecticide assays were performed on female A. mellifera following standard methods OECD 2013 [30]. Bioassays of B. terrestris were based on the OECD guidelines developed for honeybees but with bees assayed in individual Nicot cages. Bees were starved of sucrose solution for up to 2 hr to encourage feeding during the experiment. […] Controls were fed a solution of sucrose containing a concentration of acetone matching that of the highest treatment concentration. After 4-6 hr the syringes were assessed to see if bees had consumed the insecticide-sucrose solution. Those that had not consumed all of the solution were excluded from the experiment. Mortality was assessed 48 hr after feeding and lethal concentrations (LC50 values) were calculated by probit analysis using Genstat version 16 (VSN International). For synergist bioassays, B. terrestris or A. mellifera workers were first treated with 20 μg of piperonyl butoxide or 1 μg of aminobenzotriazole applied to the dorsal thorax. Synergist bioassays included an additional control group treated only with the synergist. 1 hr after synergist application, bees were then treated with the appropriate insecticide dosage as above.

SMILES	Slope (no synergist)	Slope (synergist PBO)
N#C/N=C1\SCCN1Cc1ccc(Cl)nc1 [thiacloprid]	1.8	1.4
O=[N+]([O-])NC1=NCCN1Cc1ccc(Cl)nc1 [imidacloprid]	1.5	1.9

— publication PMC5887109, “Unravelling the Molecular Determinants of Bee Sensitivity to Neonicotinoid Insecticides” (Current Biology, 2018)
